Test results as given in patent EP3783012A1, “AN ANTIMICROBIAL PEPTIDE” (priority 2019, dated 2021).
Not every detail of the peptide structures is certain; ends, links or a residue may be inferred. Where no end group is shown, it is not given here.

Key:
A. baumannii = assay: In vitro resistance study (14 sequential passages at sub-inhibitory concentrations); format: cell-based; details: repeated exposure to sub-inhibitory concentrations
Experimental: In vitro resistance study: This assay was conducted as outlined by Ge et al. 1999 with some modifications. Briefly, the in vitro passage study involved exposing bacteria diluted to […] in PBNS to Pep_V2QV5D at one-half of the previously established bactericidal concentration. After 90 minutes of incubation at 37°C, 10 µL was spotted in triplicate on MHB and incubated again overnight. Post-incubation, surviving colonies were collected, diluted in PBNS and adjusted to […] before repeated treatment with the sub-killing concentration of Pep_V2QV5D. The CE concentration was determined prior to the initiation of the study, after the 4th, 7th, 11th and 14th passages. If the CE concentration after the fourth passage was greater than the original killing concentration, then for passes 5, 6, and 7, the amount of peptide used during the bacterial challenge was increased to one-half of that new CE concentration. This was continued over a 14-day course. Magainin and colistin were used as controls for the in vitro resistance study. This assay was performed in independent duplicates.

colRAB = assay: Complete Elimination (CE) Drop Plate method; format: cell-based, A. baumannii; details: 90 minutes challenge in PBNS, tested alone
Experimental: (§1) Complete Elimination (CE) Drop Plate method: The CE method was primarily used as the antimicrobial susceptibility testing method for peptides used in this study. This was performed to avoid any interference of cations within the test media or buffer on the bioactivity of the peptides. This assay was performed by the method outlined by Chen et al. (2003) with minor modifications. Briefly, bacteria were grown overnight and sub-cultured to mid exponential phase. PBNS was used to make serial dilutions of bacteria in a 96 well plate. The appropriate volume of peptide was added to the wells at a final volume of 100 µL. As a control, PBNS was added to the bacterial suspensions without any peptide. The microtiter plate was incubated for 90 minutes at 37°C. Post challenge, 10 µL from each well was spotted onto appropriate media, depending on the strain. This was conducted in triplicate. The spots were left to dry, and the plates were incubated inverted. The first concentration to inhibit growth across all bacterial dilutions was determined as the CE concentration. Surviving colonies at sub-CE concentrations were counted after 18 hours incubation at 37°C. The reduction in colony forming units (CFU) was assessed relative to the untreated control and the log reduction induced by peptide treatment was calculated. All antimicrobial activity assays were performed in triplicate and on independent days.

colSAB = assay: Complete Elimination (CE) Drop Plate method; format: cell-based, A. baumannii; details: 90 minutes challenge in PBNS
Experimental: as §1

VRGLAPKKSLWPFGGPFKSPFN [Pep_V2QV5D]
fold change in the CE concentration over 14 days (A. baumannii): 3 fold
Complete Elimination values (CE concentration) (colRAB): 12 µg/mL
Complete Elimination values (CE concentration) (colSAB): 12 µg/mL

GIGKFLHSAKKFGKAFVGEIMNS [magainin 2]
fold change in the CE concentration over 14 days (A. baumannii): 6 fold
Complete Elimination values (CE concentration) (colRAB): 50 µg/mL
